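The test systems are human melanoma cell lines, treated with a pair of drugs for 72 h and then stained and imaged. Values are the number of DAPI-stained nuclei as a percentage of the DMSO control: 100 is no effect, lower means fewer cells. Concentrations were fixed for each drug; these are the lower of two levels, a fifth of the higher. No replicate spread is given; individual values may be noisy.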 This is part of the screen, not chosen by result. A dash means that no value is listed here.

Drug key:
tipifarnib, 0.01 µM: Cn1cncc1[C@@](N)(c1ccc(Cl)cc1)c1ccc2c(c1)c(-c1cccc(Cl)c1)cc(=O)n2C
GW9662, 2 µM: O=C(Nc1ccccc1)c1cc([N+](=O)[O-])ccc1Cl
cediranib, 0.4 µM: COc1cc2c(Oc3ccc4[nH]c(C)cc4c3F)ncnc2cc1OCCCN1CCCC1
bortezomib, 0.001 µM: CC(C)C[C@H](NC(=O)[C@H](Cc1ccccc1)NC(=O)c1cnccn1)B(O)O
TCS401, 1.67 µM: O=C(O)C(=O)Nc1sc2c(c1C(=O)O)CCNC2
PD173074, 0.1 µM: CCN(CC)CCCCNc1ncc2cc(-c3cc(OC)cc(OC)c3)c(NC(=O)NC(C)(C)C)nc2n1
U73122, 0.4 µM: COc1ccc2c(c1)CCC1C2CCC2(C)C(NCCCCCCN3C(=O)C=CC3=O)CCC12 (centres unmarked)
nilotinib, 0.2 µM: Cc1cn(-c2cc(NC(=O)c3ccc(C)c(Nc4nccc(-c5cccnc5)n4)c3)cc(C(F)(F)F)c2)cn1
CP-690550, 1 µM: C[C@@H]1CCN(C(=O)CC#N)C[C@@H]1N(C)c1ncnc2[nH]ccc12

Pair,501mel,IPC-298,A101D,LOX IMVI,C32,COLO 829,G-361,MEL-HO,IST-MEL1,A2058,LB2518-MEL,COLO 792,COLO 800,A375
nilotinib + cediranib,-,104,88.6,159,90.4,165,93.1,99.5,99.3,98.4,98.4,115,87.2,89.9
U73122 + nilotinib,85.2,99.3,98.4,93.4,86.8,98.3,87.1,108,88.2,82.8,111,107,88.2,-
TCS401 + cediranib,84.8,103,89.1,112,85.5,98.8,113,85.4,112,102,112,93.6,122,69.9
cediranib + bortezomib,-,78.8,28.1,52.1,98.8,83.7,8.3,85.3,90.6,86.6,56.7,81.3,130,86.5
PD173074 + GW9662,89.9,95.9,117,98.1,103,66.7,94.0,88.6,102,89.7,96.9,94.2,86.6,109
TCS401 + CP-690550,98.6,100,92.8,117,100,99.0,109,99.5,99.3,107,89.6,108,73.7,112
U73122 + tipifarnib,77.9,95.2,95.0,97.3,88.0,80.4,80.6,91.5,103,63.9,73.4,86.9,72.7,72.1
PD173074 + nilotinib,84.1,100,93.2,-,87.0,140,91.3,89.9,101,92.2,91.0,94.8,91.3,-
nilotinib + GW9662,84.5,99.6,91.2,161,83.7,115,98.2,91.9,105,93.9,110,106,100,-
GW9662 + tipifarnib,76.7,101,82.3,85.5,92.3,86.4,112,95.1,102,93.3,68.1,86.1,131,102
cediranib + tipifarnib,-,99.6,102,85.0,80.3,85.2,100,98.5,95.0,78.1,96.7,94.5,64.2,70.6
cediranib + U73122,85.6,98.9,101,108,99.5,99.4,106,104,108,83.0,100,93.8,115,84.5
nilotinib + CP-690550,-,106,114,216,97.7,109,106,102,95.2,97.0,95.1,104,132,96.7
PD173074 + bortezomib,-,77.7,35.4,92.0,102,80.2,6.7,86.9,87.0,86.4,-,102,70.0,-
CP-690550 + PD173074,88.2,100,107,99.6,104,87.3,109,104,99.8,106,102,88.9,74.3,94.0
tipifarnib + bortezomib,-,66.4,31.1,76.8,93.2,69.4,10.3,87.3,87.8,81.2,-,91.8,98.0,87.2
tipifarnib + nilotinib,-,100,99.9,109,80.5,81.4,86.8,86.9,86.8,90.1,97.2,107,126,82.2
CP-690550 + GW9662,123,97.7,119,45.2,105,80.1,98.1,99.8,100,111,102,94.5,118,96.5
GW9662 + bortezomib,38.6,78.3,36.8,72.8,90.7,68.0,12.0,101,85.5,90.6,47.8,109,101,-
cediranib + GW9662,85.8,96.0,113,138,96.7,105,110,86.9,97.5,97.7,110,104,111,91.4
PD173074 + tipifarnib,107,101,96.8,79.3,84.0,81.7,89.3,109,93.2,85.6,71.5,82.6,78.5,81.2
cediranib + PD173074,112,106,107,126,95.8,86.4,91.7,96.3,104,113,82.8,90.6,61.7,97.0
TCS401 + bortezomib,36.2,73.4,41.9,66.2,78.0,71.3,9.7,84.1,89.9,90.2,57.3,88.6,130,-
GW9662 + U73122,78.1,99.9,84.6,61.5,96.3,92.3,120,117,101,99.2,97.6,101,115,90.9
CP-690550 + bortezomib,-,82.7,31.6,71.5,92.1,62.6,9.0,88.9,84.4,83.4,50.3,99.8,80.2,98.0
TCS401 + GW9662,96.8,99.2,84.5,79.8,116,78.1,113,83.7,100,109,85.5,108,151,101
tipifarnib + TCS401,85.1,97.4,90.1,94.0,80.9,78.3,96.4,108,99.8,85.6,97.9,85.9,151,76.4
bortezomib + U73122,32.0,68.3,33.9,70.0,87.0,46.7,2.6,78.2,102,81.2,34.5,91.4,152,-

For reference, 2 entries once more:

Pair	501mel	IPC-298	A101D	LOX IMVI	C32	COLO 829	G-361	MEL-HO	IST-MEL1	A2058	LB2518-MEL	COLO 792	COLO 800	A375
nilotinib + cediranib	-	104	88.6	159	90.4	165	93.1	99.5	99.3	98.4	98.4	115	87.2	89.9
tipifarnib + nilotinib	-	100	99.9	109	80.5	81.4	86.8	86.9	86.8	90.1	97.2	107	126	82.2

Source: doi:10.1371/journal.pone.0140310, primary screening data, rounded.